No constants are given. Whether binding was seen depends on the method and setting. Binding seen in cells or lysates may run through a third protein.
Key:
[1] = molecular target: AHSG-Mut-HA (UniProt P02765); assay: co-IP; NDP/NUP-HA (WT or Mut) precipitated with anti-HA in Bel-7402 cells; RPL7A, HBB and HIST1H4H detected with their antibodies (Figure 7A)
[2] = molecular target: TF-Mut-HA (UniProt P02787); assay: as above

Amino acid sequences for entries named in this document (tags omitted). A change or cut given only in a name is not applied to a line headed by its entry.
UniProt P02765: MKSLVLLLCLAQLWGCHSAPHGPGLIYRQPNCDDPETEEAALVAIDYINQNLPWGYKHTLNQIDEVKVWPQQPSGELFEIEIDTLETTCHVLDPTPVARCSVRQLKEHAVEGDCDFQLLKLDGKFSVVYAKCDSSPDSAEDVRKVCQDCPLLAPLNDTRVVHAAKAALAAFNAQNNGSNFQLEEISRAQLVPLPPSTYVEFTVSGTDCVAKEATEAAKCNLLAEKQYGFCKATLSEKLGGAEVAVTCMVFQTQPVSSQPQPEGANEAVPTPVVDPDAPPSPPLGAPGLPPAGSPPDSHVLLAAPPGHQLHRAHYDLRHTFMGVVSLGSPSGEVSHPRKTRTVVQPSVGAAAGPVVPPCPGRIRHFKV
UniProt P02787: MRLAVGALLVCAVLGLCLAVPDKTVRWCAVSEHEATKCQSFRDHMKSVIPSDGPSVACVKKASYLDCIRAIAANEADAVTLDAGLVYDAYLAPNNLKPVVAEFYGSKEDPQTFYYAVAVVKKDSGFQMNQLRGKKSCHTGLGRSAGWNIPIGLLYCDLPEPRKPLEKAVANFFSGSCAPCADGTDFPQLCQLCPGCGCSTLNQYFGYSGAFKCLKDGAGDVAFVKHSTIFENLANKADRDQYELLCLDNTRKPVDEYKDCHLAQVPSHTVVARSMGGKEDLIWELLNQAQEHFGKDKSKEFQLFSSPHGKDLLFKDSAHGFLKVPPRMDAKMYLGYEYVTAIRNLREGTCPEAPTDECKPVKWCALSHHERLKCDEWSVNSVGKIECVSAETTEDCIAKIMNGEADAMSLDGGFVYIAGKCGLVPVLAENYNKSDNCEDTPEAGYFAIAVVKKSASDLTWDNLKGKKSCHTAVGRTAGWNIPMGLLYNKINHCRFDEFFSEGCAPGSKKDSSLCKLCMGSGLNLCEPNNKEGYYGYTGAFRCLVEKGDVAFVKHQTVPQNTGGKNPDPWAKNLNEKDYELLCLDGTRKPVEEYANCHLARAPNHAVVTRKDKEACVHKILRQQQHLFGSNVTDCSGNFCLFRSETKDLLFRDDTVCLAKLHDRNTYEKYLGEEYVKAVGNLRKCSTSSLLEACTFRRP
UniProt P68871: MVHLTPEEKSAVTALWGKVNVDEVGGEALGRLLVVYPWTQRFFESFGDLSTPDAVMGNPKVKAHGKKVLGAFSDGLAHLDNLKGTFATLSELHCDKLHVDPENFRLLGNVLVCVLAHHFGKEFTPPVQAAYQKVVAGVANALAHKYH

binding [1]: no binding
binding [2]: no binding
Substance: HBB, endogenous (from UniProt P68871 1-147)

Reference: PMC8201403
